{"source": "PubChem BioAssay AID504467", "about": "(National Center for Advancing Translational Sciences (NCATS), 2011)", "note": "Screen size: about 330,000 compounds; about 7,700 (2.3%) were called active. Inconclusive results, whose numbers are uncertain, are shown with a selection of clear calls. The call rests on the fitted dose curve; in most records, active means well fitted inhibition curve with a large enough effect; inconclusive means small, poorly fitted or top-dose-only effect, or effect the other way; inactive means flat fitted curve, though single readings scatter. A potency beside an inconclusive call is a rough fit, not a confirmed value. On the % scale 0 is the no-effect control and ±100 the full control effect; potency means the concentration at half of the fitted maximal effect."}
{"test": "qHTS screen for small molecules that inhibit ELG1-dependent DNA repair in human embryonic kidney (HEK293T) cells expressing luciferase-tagged ELG1; further: nearly all actives have a fitted effect of over 55% in size", "conditions": "HEK293T ELG1-luciferase reporter, luminescence, 16 h, DNA damage induced by 5-fluorouridine; activity change, negative = inhibition: at 46.1 µM (top of the series)", "summary_of_the_method": "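DMSO vehicle served as the neutral condition. Each well held 2,000 cells given 5-fluorouridine plus compound; after 16 hr at 37 °C/5% CO2, ONE-Glo was added and luciferase measured 30 min later.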"}
{"smiles": "Cc1ccsc1/C=N/Nc1nc(=O)[nH]nc1C", "Potency": "inconclusive: 5.8 µM [activator, full curve]"}
{"smiles": "O=C1CSC(c2cccs2)N1c1ccccc1", "note": "(stereo unspecified)", "activity change, negative = inhibition": "inactive: 13.1%"}
{"smiles": "COc1cc(C2Nc3ccc4ncccc4c3C3=C2C(=O)CCC3)cc(OC)c1OC", "note": "(stereo unspecified)", "Potency": "inconclusive: 16.4 µM [activator, single point]"}
{"smiles": "O=C(O)CC/C(=N\\NC(=O)c1ccc(F)cc1)c1ccc(Br)cc1", "Potency": "inconclusive: 29.1 µM [activator, single point]"}
{"smiles": "COc1cccc(-c2nnc(-c3ccc(C)o3)o2)c1", "Potency": "inconclusive: 1.46 µM [activator, full curve]"}
{"smiles": "CCOC(=O)CN(C(=O)CSc1nnc(-c2ccc(OC)c(OC)c2)o1)c1ccc(F)cc1", "Potency": "inconclusive: 20.6 µM [inhibitor, single point]"}
{"smiles": "COc1cc(S(=O)(=O)N2CCCCC2)ccc1NC(=O)c1ccccc1Cl", "Potency": "inconclusive: 25.9 µM [inhibitor, single point]"}
{"smiles": "COc1ccc(C(=O)NCC(=O)N=Nc2c(O)n(C)c3ccccc23)cc1OC", "Potency": "inconclusive: 11.6 µM [inhibitor, partial curve]"}
{"smiles": "Cc1nc(N)nc(N)c1/C=C/C(C)(C)c1ccc(Cl)cc1", "Potency": "active: 0.231 µM"}
{"smiles": "Cc1ccc2cc(CN(Cc3cccs3)C(=O)c3ccco3)c3nnnn3c2c1C", "activity change, negative = inhibition": "inactive: 9.01%"}
{"smiles": "S=C(Nc1ccc(Br)cc1)N1CCN(c2ccccn2)CC1", "activity change, negative = inhibition": "inactive: 6.87%"}
{"smiles": "CCCN(C(=O)c1nc2nc(C)cc(C)n2n1)c1c(N)n(Cc2ccccc2)c(=O)[nH]c1=O", "activity change, negative = inhibition": "inactive: 6.52%"}
{"smiles": "Nn1c(COc2ccc(Cl)cc2)nc2ccccc2c1=O", "Potency": "inconclusive: 16.4 µM [activator, partial curve]"}
{"smiles": "Cc1cccc(Oc2ncc(-c3ccc(Cl)cc3)cn2)c1", "Potency": "inconclusive: 11.6 µM [activator, single point]"}
{"smiles": "Fc1ccc(CSc2ncnc3scc(-c4ccccc4)c23)cc1", "activity change, negative = inhibition": "inactive: -1.25%"}
{"smiles": "CC(C)Cc1nc(N2CCOCC2)c(C#N)c2c1CCC2", "Potency": "inconclusive: 20.6 µM [inhibitor, single point]"}
{"smiles": "COCCNC(=S)Nc1ccc(N2CCCCC2)cc1", "Potency": "inconclusive: 18.3 µM [activator, partial curve]"}
{"smiles": "O=C(NCCN1CCCCC1)/C(=C/c1ccco1)NC(=O)c1ccccc1", "Potency": "inconclusive: 20.6 µM [inhibitor, single point]"}
{"smiles": "CN(Cc1cccc(F)c1)C(=O)c1ccc(S(=O)(=O)N2CCCCCC2)cc1", "Potency": "active: 20.6 µM"}
{"smiles": "COc1ccc(COC(=O)C2=C(C)NC(=O)NC2c2cccc(Br)c2)cc1", "note": "(stereo unspecified)", "Potency": "inconclusive: 20.6 µM [inhibitor, single point]"}
{"smiles": "Cc1ccc(-c2onc3ccc(C=O)cc23)cc1", "Potency": "inconclusive: 10.3 µM [activator, partial curve]"}
{"smiles": "O=C(NC1CCS(=O)(=O)C1)c1cccc(Br)c1", "note": "(stereo unspecified)", "Potency": "inconclusive: 3.66 µM [activator, single point]"}
{"smiles": "O=C(Nc1cccc(/C=C/c2ccccn2)c1)c1cc(Cl)ccn1", "Potency": "inconclusive: 20.6 µM [activator, single point]"}
{"smiles": "CCN1C(=O)[C@H]2[C@@H](c3ccc(SC4CCCCC4)c(OC)c3)N3CCCC[C@@]3(C(=O)OC)[C@H]2C1=O", "activity change, negative = inhibition": "inactive: 7.26%"}
{"smiles": "C=CC[C@]12CCc3ccccc3C1N(c1ccc(C(=O)OCC)cc1)C2=O", "note": "(stereo partly specified)", "activity change, negative = inhibition": "inactive: 6.87%"}
{"smiles": "O=C(NC(c1cccnc1)C(F)(F)F)c1cc(COc2ccc3c(c2)CCCC3)on1", "note": "(stereo unspecified)", "Potency": "inconclusive: 29.1 µM [activator, single point]"}
{"smiles": "COCCNC(=O)C12CC3CC(C1)CC(c1ccccc1)(C3)C2", "Potency": "inconclusive: 18.3 µM [inhibitor, single point]"}
{"smiles": "CCOC(=O)N1CCC(NC(=O)c2cc(COc3c(C)cccc3C)on2)CC1", "activity change, negative = inhibition": "inactive: -8.44%"}
{"smiles": "NC(=O)C1CCN(C(=O)c2cc(-c3ccc(Cl)cc3)nc3ccccc23)CC1", "Potency": "inconclusive: 23.1 µM [inhibitor, single point]"}
{"smiles": "COc1cc(/C=N/NC(=O)C(=O)/C=C2\\NC(C)(C)Cc3ccccc32)ccc1O", "Potency": "inconclusive: 29.1 µM [inhibitor, single point]"}
{"smiles": "C#CCN1C(C)=C(C(=O)OC)C(c2cccc([N+](=O)[O-])c2)C(C(=O)OCC)=C1C", "note": "(stereo unspecified)", "activity change, negative = inhibition": "inactive: -13%"}
{"smiles": "CCN1CCN(c2nc(Nc3ccc(C)c(C)c3)nc(N)c2[N+](=O)[O-])CC1", "Potency": "inconclusive: 29.1 µM [inhibitor, partial curve, poor fit]"}
{"smiles": "Cc1ccccc1-c1nc2cc(Cl)ccc2o1", "Potency": "inconclusive: 20.6 µM [activator, partial curve]"}
{"smiles": "COc1ccc(-c2nn(-c3ccccc3)cc2/C=N/NC(=S)NC(C)C)cc1OC", "Potency": "active: 11.6 µM"}
{"smiles": "CCC1CCCCN1S(=O)(=O)c1ccc(S(=O)(=O)N2CCN(S(=O)(=O)CC)CC2)cc1", "note": "(stereo unspecified)", "activity change, negative = inhibition": "inconclusive: 50.2% [activator]"}
{"smiles": "OCC[C@@H]1C[C@H](O)[C@@H](O)[C@]2(OCc3ccccc32)O1", "activity change, negative = inhibition": "inactive: 0%"}
{"smiles": "COCCNC(=O)/C(C#N)=C/c1ccc(O)cc1", "Potency": "inconclusive: 14.6 µM [activator, single point]"}
{"smiles": "CCOc1ccccc1-c1cc(C(=O)Nc2ccc(C(=O)O)cc2)c2ccccc2n1", "activity change, negative = inhibition": "inactive: 11.5%"}
{"smiles": "Brc1ccc(-c2nc(-c3cccnc3)no2)o1", "Potency": "inconclusive: 20.6 µM [activator, partial curve]"}
{"smiles": "O=C1C2=C(SCCS2)C(=O)N1CCCO", "Potency": "inconclusive: 0.82 µM [activator, full curve, poor fit]"}
{"smiles": "Cc1[nH]c2c(C)cccc2c(=O)c1CN1CCCCCC1", "activity change, negative = inhibition": "inactive: -2.24%"}
{"smiles": "O=C(Cc1c(Cl)cccc1Cl)OCC(=O)N1CCc2ccccc2C1", "Potency": "inconclusive: 18.4 µM [activator, single point]"}
{"smiles": "COc1cccc(NC(=O)CNC(=O)Cn2cnc3sc(C)c(C)c3c2=O)c1", "activity change, negative = inhibition": "inactive: -7.71%"}
{"smiles": "O=C(CSCc1cccc(Cl)c1)N1CCN(Cc2ccc3c(c2)OCO3)CC1", "Potency": "inconclusive: 29.1 µM [inhibitor, partial curve, poor fit]"}
{"smiles": "C[C@]12CC[C@@H]3c4ccc(O[C@@H]5O[C@H](C(=O)O)[C@@H](O)[C@H](O)[C@H]5O)cc4CC[C@H]3[C@@H]1C[C@@H](O)[C@@H]2O", "activity change, negative = inhibition": "inactive: 7.51%"}
{"smiles": "CCOCC(=O)Nc1nc2ccc(OC)cc2s1", "Potency": "inconclusive: 8.2 µM [activator, partial curve]"}
{"smiles": "CC1CCC(NC(=O)CCS(=O)(=O)c2ccc3c(c2)NC(=O)CS3)CC1", "note": "(stereo unspecified)", "activity change, negative = inhibition": "inactive: -2.48%"}
{"smiles": "CC(=O)c1c(C)[nH]c(C(=O)OCC(=O)Nc2sc3c(c2C#N)CCC(C)C3)c1C", "note": "(stereo unspecified)", "activity change, negative = inhibition": "inactive: -3.87%"}
{"smiles": "O=[N+]([O-])c1cccc(S(=O)(=O)[N-]c2nc3ccccc3nc2-n2cc[n+](Cc3ccccc3)c2)c1", "activity change, negative = inhibition": "inactive: 0%"}
{"smiles": "CCOC(=O)c1sc(NCC2CCCO2)nc1C", "note": "(stereo unspecified)", "Potency": "inconclusive: 18.4 µM [activator, partial curve, poor fit]"}
{"smiles": "CCNC(=S)N(CCc1c(C)[nH]c2ccc(Cl)cc12)Cc1cccnc1", "activity change, negative = inhibition": "inactive: 0.366%"}
{"smiles": "COc1ccc(S(=O)(=O)N2CCOCC2)cc1NC(=O)c1c(-c2ccccc2)noc1C", "Potency": "inconclusive: 18.3 µM [inhibitor, partial curve, poor fit]"}
{"smiles": "CCOC(=O)N1C/C(=C\\c2ccccc2)C(=O)/C(=C/c2ccccc2)C1", "Potency": "inconclusive: 29.1 µM [inhibitor, single point]"}
{"smiles": "CCOc1ccc(NC(=O)CN(C)C(=O)c2c(C)nn(-c3ccccc3)c2Cl)cc1OCC", "activity change, negative = inhibition": "inactive: -10%"}
{"smiles": "O=C1CSC(=S)N1/N=C/c1cc(Br)c(O)c(Br)c1", "Potency": "inconclusive: 0.0046 µM [inhibitor, full curve, poor fit]"}
{"smiles": "CN(C)c1ccc(C(=O)OCC(=O)N2CCOCC2)cc1", "Potency": "inconclusive: 29.1 µM [activator, single point]"}
{"smiles": "Cc1ccccc1NC(=O)c1ccc2c(O)c(S(=O)(=O)c3ccccc3)c(=O)[nH]c2c1", "activity change, negative = inhibition": "inactive: 5.03%"}
{"smiles": "CCOc1ccc(N2CC(O)Cn3c2nc2c3c(=O)n(CCCc3ccccc3)c(=O)n2C)cc1", "note": "(stereo unspecified)", "Potency": "inconclusive: 20.6 µM [inhibitor, single point]"}
{"smiles": "COc1ccc(-c2nnc(NC(=O)c3ccc(F)cc3)o2)cc1", "Potency": "inconclusive: 20.6 µM [activator, single point]"}
{"smiles": "CCc1ccc(S(=O)(=O)NC2CC(C)(C)NC(C)(C)C2)cc1", "activity change, negative = inhibition": "inactive: -5.33%"}
{"smiles": "O=C(COC(=O)c1ccc(S(=O)(=O)N2CCOCC2)cc1)Nc1nc(-c2ccccc2)cs1", "Potency": "inconclusive: 16.4 µM [activator, partial curve]"}
{"smiles": "c1ccc(C2=NNC(c3ccco3)=Nc3ccccc32)cc1", "Potency": "inconclusive: 1.64 µM [inhibitor, partial curve, poor fit]"}
{"smiles": "CNC(=S)N(CCc1c(C)[nH]c2ccc(C)cc12)Cc1cccs1", "Potency": "inconclusive: 18.3 µM [inhibitor, single point]"}
{"smiles": "CCOCCn1c(CN(Cc2ccccc2)Cc2ccccc2)nc2c1c(=O)n(C)c(=O)n2C", "Potency": "active: 18.4 µM"}
{"smiles": "COc1ccc(CCNC(=O)c2cc(-c3cc(Cl)ccc3O)n[nH]2)cc1OC", "Potency": "inconclusive: 29.1 µM [inhibitor, single point]"}
{"smiles": "Cn1c(Cc2ccccc2)nnc1SCC(=O)N1CCN(c2ccccc2)CC1", "Potency": "inconclusive: 16.4 µM [inhibitor, single point]"}
{"smiles": "COc1ccc(N2C(=O)c3cccc4cccc(c34)C2=O)cc1", "activity change, negative = inhibition": "inactive: 3.39%"}
{"smiles": "COc1ccccc1C(=O)NC(C)c1cccc2ccccc12", "note": "(stereo unspecified)", "activity change, negative = inhibition": "inactive: 0.44%"}
{"smiles": "CCOC(=O)c1ccc(N2Cc3ccccc3C2=N)cc1", "Potency": "inconclusive: 16.4 µM [activator, partial curve]"}
{"smiles": "Cc1ccc(C(=O)/C=C/c2c[nH]c3ccccc23)cc1", "Potency": "inconclusive: 6.51 µM [activator, partial curve]"}
{"smiles": "O=C(COC(=O)Cn1cnc2ccccc2c1=O)Nc1ccccc1Sc1ccc(Cl)cc1", "activity change, negative = inhibition": "inactive: -5.8%"}
